Results published in the supplement of paper PMC3334620.
Over roughly 33,000 sequences, “E-score (-0.5 to 0.5)” has its median near -0.0014; the highest 2% begin near 0.25. Some of the results follow.

These sequences were tested against T1, Cad1 (UniProt P24813) (assay: PBM E-score (8-mer binding enrichment) (E-score (-0.5 to 0.5)); higher = stronger / more preferred TF binding). Settings: protein concentration: 100 nM; construct: GST-full length.
T1 sequence: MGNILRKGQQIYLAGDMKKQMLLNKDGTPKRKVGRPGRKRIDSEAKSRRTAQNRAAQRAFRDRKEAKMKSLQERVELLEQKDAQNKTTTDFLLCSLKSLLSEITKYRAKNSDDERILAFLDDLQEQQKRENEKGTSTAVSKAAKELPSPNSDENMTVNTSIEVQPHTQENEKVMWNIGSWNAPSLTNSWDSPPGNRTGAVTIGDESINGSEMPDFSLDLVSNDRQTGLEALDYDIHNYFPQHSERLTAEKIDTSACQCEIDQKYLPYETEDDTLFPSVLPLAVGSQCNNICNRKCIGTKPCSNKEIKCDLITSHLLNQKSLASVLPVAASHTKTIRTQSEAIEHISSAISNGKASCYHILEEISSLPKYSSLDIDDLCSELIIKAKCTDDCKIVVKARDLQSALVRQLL
How it was run: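 Using PURExpress in vitro transcription/translation, GST-tagged yeast transcription factors were made in full-length or DNA-binding-domain form. These were applied at about 100-200 nM to double-stranded universal all-10-mer Agilent arrays, and bound protein was detected with fluorescent anti-GST. Scans were normalised with masliner before the Universal PBM Analysis Suite assigned E-scores to ungapped eight-base words pooled with their reverse complements.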

Point of comparison: ATCGTGGC, “PBM E-score” value 0.0523. Against it:
- ACATCTCA — higher, 0.0823
- TTCTAGAA — higher, 0.0653
- ACAACTGG — lower, 0.0106
- ACGGGTCC — lower, -0.22
- ACCGCGCG — higher, 0.225
- TATCCTGA — higher, 0.23
- ATAAGACG — lower, -0.0148
- GATATCCA — higher, 0.145
- ATCAAAAA — higher, 0.149
- CGTGACTC — lower, -0.27
- CCCTCCAC — lower, -0.096
- CAGCAGGG — lower, -0.205
- CGTCACAC — lower, -0.00722
- CGTCCACG — higher, 0.0657
- CAAGTAGC — lower, -0.0227
- ATAATTCG — higher, 0.168
- GATCAATA — higher, 0.135
- CTAACTGA — higher, 0.0613
- CGGGCTAC — lower, -0.0235
- AGCTTTTA — lower, 0.00175
- ACGCGAAC — lower, -0.0346
- ACCATGGA — lower, -0.23
- CGTGTCTA — lower, 0.00846
- GCGTGGAC — higher, 0.0613
- GCGACGCA — lower, 0.0508
- TGTACTAA — higher, 0.0856
- AAGAAGAG — lower, -0.0661
- CTCTGGGA — lower, -0.252
- AGTCCACC — lower, -0.0457
- AGTGGGCA — lower, -0.114
- CGAGATAC — higher, 0.183
- GTGGTCAA — lower, -0.00284
- GAAATACA — higher, 0.0609
- ACGCATGA — lower, 0.0155
- CCCCGACA — lower, -0.154
- AATTCCGT — higher, 0.199
- TGAGCACA — higher, 0.065
- CAATTCAC — higher, 0.121
- CCTCACGC — higher, 0.236
- ACGTACCT — lower, -0.253
- TGCCGCAA — higher, 0.106
- CTCACCAG — lower, -0.127
- ACCAAGTC — lower, 0.0324
- CGGTGCAA — lower, -0.0654
- AGGAACAT — higher, 0.15
- TATGAGAA — higher, 0.18
- CTCAGCTA — lower, -0.171
- AGAAACTA — lower, -0.145
- TGCAAAAA — higher, 0.0686
- GGGGATTA — lower, -0.2
- ATTTCTCG — higher, 0.332
- CCGGTTGA — lower, 0.0248
- ACGAGCGG — lower, -0.0938
- GTACGGAC — higher, 0.105
- GGCTGCCC — lower, -0.12
- GAATTACC — higher, 0.111
- GGCTGATA — lower, -0.0873
- AGGAGCGC — lower, -0.15
- AAATGGAT — lower, 0.00142
- ACAGGGGG — lower, -0.402
- ATCCCGGA — higher, 0.0915
- CAACCAGC — lower, -0.0251
- GCGCCAGC — lower, -0.0972
- CGAGTATC — lower, -0.101
- AGGGCCGC — lower, -0.0441
- AACCAGGT — lower, -0.1
- ACTTTCGC — higher, 0.0833
- AACCGCGC — higher, 0.14
- GAAGTTCA — higher, 0.102
- AGGTGGAG — lower, -0.233
- CGATGCGA — lower, -0.0258
- CTAGCTAG — higher, 0.279
- GAAACAAA — higher, 0.0782
- AAAGAAAG — lower, 0.037
- GCTAGTCC — lower, -0.145
- AGCGACCT — lower, -0.237
- AATTCTCA — higher, 0.0911
- AGACGACC — lower, -0.018
- AGCTCTGA — lower, -0.0348
- AATAGCAT — higher, 0.0799
- CGGATGGA — lower, 0.0381
- AATGATCT — higher, 0.0536
- GCCTTATA — lower, -0.0929
- AGGATTAT — lower, -0.0734
- CCAAAAGC — lower, -0.11
- CAGGCATC — lower, -0.0766
- AGCATACC — lower, -0.112
- ACAGTACC — lower, -0.0272
- ACAACTCG — lower, -0.0242
- ATCGAACC — higher, 0.138
- CGTTTCAG — higher, 0.148
- AGCATGAG — lower, -0.0992
- CATTTACC — lower, -0.0436
- ACGTACCC — lower, 0.0226
- CACAGTCA — lower, -0.0235
- AATATGTG — higher, 0.251
- TCAGCGGA — higher, 0.232
- GTGTGGGA — lower, -0.0443
- CATTCATC — lower, 0.012
- CGAAAACG — higher, 0.0757
- CGTCAAAG — lower, -0.0613
- CCTTATAA — higher, 0.0849
- ATTTCTGG — lower, 0.0461
- ATCTCGAA — higher, 0.215
- GGAGGATA — lower, -0.13
- CTGTGAGC — lower, 0.037
- AATGAGGT — lower, 0.0401
- CGTCATCA — higher, 0.0901
- CCCTACAC — lower, -0.0384
- TACACGTA — lower, -0.00969
- CTAGTCTC — lower, -0.302
- ATAATAGC — higher, 0.147
- CAACGCAC — lower, -0.0247
- GCTCCAAA — lower, -0.0403
- ATCTCCGG — higher, 0.117
- ATCCTATG — lower, -0.0362
- AACGAGCA — lower, -0.0102
- AATCATGG — lower, 0.048
- ATTTAAGG — lower, -0.0875
- TGAGGGAA — lower, -0.187
- AACGTCTC — lower, -0.0496
- CTACGCTA — lower, -0.187
- AATAGTCA — lower, -0.00784
- AGCAGGCC — lower, -0.0635
- CCCCGGTA — lower, -0.261
- CACCCCCC — lower, -0.375
- ATATCCGA — higher, 0.219
- AGTATCCG — lower, 0.0117
- ACGGAGTC — lower, -0.0617
- AAAACAGC — higher, 0.0718
- GTCCGATA — lower, -0.229
- CACGGACC — higher, 0.0902
- AACCCTAG — lower, -0.0792
- TGTCGCAA — lower, -0.137
- GAATGAGC — lower, -0.0319
- GAGCTGGC — lower, -0.181
- GAGGACGC — lower, -0.0161
- CCGTAGTC — lower, -0.0421
- CGTCCAGC — lower, -0.0486
- GCATGAGC — lower, -0.0683
- ACACAGGA — lower, -0.178
- ATTGTGGC — lower, 0.0173
- AAACCTCA — higher, 0.196
- AAACGACC — higher, 0.101
- ACTTGTGG — lower, -0.0436
- CACTTAGC — lower, -0.0539
- CCTGTTCA — lower, -0.118
- AAATTTTC — higher, 0.0644
- CATGACTA — lower, 0.0268
- AATTAATG — higher, 0.242
- ACCTATCC — higher, 0.081
- AAGGATCG — lower, -0.0624
- CCCACAAG — lower, -0.0242
- CAAGGAGC — lower, -0.0849
- CCGTGTCA — lower, -0.0894
- TCGACTAA — lower, 0.0381
- ATTCCTGA — lower, 0.00269
- AAATGACA — higher, 0.116
- CTGCTACA — higher, 0.0654
- CGCGGAGA — higher, 0.234
- CCGGGGCC — lower, -0.237
- CCCCCCCC — lower, -0.483
- TCGAGACA — lower, -0.145
- CAAACTTC — higher, 0.106
- AGGTACTA — lower, 0.0283
- CCCTGGGC — lower, -0.233
- CAAGGACC — lower, -0.146
- ATCCTCCC — lower, -0.263
- AGGCGGGG — lower, -0.0196
- CATTACCA — higher, 0.0981
- ACGTGTAA — higher, 0.0558
